Article PMC6003988, “VRK1 and AURKB form a complex that cross inhibit their kinase activity and the phosphorylation of histone H3 in the progression of mitosis” (Cellular and Molecular Life Sciences: CMLS, 2018)
These are yes or no findings as the source states them, for the method shown. In cells and extracts the contact can be indirect. Some binding calls cover weakened binding; strength is not graded here. Tags and fused reporters may be left off the sequences shown.

Amino acid sequences for entries named in this document (tags omitted).
UniProt Q96GD4: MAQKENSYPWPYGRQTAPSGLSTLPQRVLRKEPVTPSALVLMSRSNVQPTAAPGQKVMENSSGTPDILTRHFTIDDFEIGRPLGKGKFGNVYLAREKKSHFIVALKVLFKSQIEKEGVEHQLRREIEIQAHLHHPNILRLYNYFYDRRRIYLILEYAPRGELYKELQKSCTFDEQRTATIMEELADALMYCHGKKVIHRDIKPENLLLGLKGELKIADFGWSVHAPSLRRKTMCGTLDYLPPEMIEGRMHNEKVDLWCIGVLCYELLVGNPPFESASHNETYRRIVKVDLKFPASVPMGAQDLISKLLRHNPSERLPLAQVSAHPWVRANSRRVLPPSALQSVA

Columns and labels:
[1] = biological target: T1, GST–VRK1 (K179E), kinase inactive, expressed in HEK293T cells (human) (UniProt Q99986); assay: pull-down; pull-down of GST-VRK1 (kinase active or inactive) from extracts of HEK293T cells co-transfected with V5-AURKB; AURKB detected by immunoblot
T1 sequence: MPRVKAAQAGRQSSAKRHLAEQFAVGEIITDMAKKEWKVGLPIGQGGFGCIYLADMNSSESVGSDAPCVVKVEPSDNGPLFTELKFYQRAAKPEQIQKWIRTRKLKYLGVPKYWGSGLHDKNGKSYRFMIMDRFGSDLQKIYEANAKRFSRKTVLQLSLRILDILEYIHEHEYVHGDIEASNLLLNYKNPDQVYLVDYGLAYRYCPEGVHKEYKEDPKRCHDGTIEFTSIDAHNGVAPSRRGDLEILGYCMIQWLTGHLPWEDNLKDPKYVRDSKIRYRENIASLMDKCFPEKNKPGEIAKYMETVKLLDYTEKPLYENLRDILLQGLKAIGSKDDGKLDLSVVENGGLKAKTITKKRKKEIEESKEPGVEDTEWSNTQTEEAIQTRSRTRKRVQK

[2] = biological target: T2, HA–VRK1–K179E, kinase-dead, expressed in HEK293T cells (human) (UniProt Q99986); assay: co-IP; immunoprecipitation of HA-VRK1 (WT or kinase-dead) from extracts of HEK293T cells co-transfected with V5-AURKB; AURKB detected by immunoblot
T2 sequence: T1 sequence

- binding [1]: binds
- binding [2]: binds
Substance: V5–AURKB, expressed in HEK293T cells (from UniProt Q96GD4 1-344) (enzyme)
